Test results as given in patent publication US20240093159A1 (UNIVERSITY OF DUNDEE, published 2024).
These are yes or no findings as the source states them, for the method shown. Some results given as binding are weak or reduced against the parent protein; the word gives no strength.

Amino acid sequences for entries named in this document (tags omitted). A change or cut given only in a name is not applied to a line headed by its entry.
UniProt Q16552: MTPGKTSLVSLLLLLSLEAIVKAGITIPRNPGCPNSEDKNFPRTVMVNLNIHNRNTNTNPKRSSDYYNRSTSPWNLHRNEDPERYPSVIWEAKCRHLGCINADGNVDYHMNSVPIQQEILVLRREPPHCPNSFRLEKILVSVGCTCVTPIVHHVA

Biological target: T1, Human IL17RA protein (SinoBiological) (human, UniProt Q96F46 33-320)
T1 construct: Coated on ELISA plates at 0.25 ug/well; also called IL17RA receptor
T1 sequence (looked up): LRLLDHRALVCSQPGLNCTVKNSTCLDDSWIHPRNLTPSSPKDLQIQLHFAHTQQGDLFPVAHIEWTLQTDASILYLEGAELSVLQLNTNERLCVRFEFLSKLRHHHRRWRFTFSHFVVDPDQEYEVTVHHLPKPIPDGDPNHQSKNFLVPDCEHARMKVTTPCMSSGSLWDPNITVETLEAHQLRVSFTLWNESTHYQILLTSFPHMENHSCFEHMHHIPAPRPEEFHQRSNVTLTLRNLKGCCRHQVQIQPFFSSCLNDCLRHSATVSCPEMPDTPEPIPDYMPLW
Test: receptor binding ELISA with coated human IL17RA

“human IL17 purified on Im7-Sepharose and released from ColE7 by TEV protease (from UniProt Q16552 24-155) (ligand)” was tested, and the binding was “binds”.
